Among all 340,000 compounds or so, about 170 (0.05%) were called active. Inconclusive means that the source gave no clear call. Such entries were picked first, then a sample of the others. Calls follow the shape of the dose curve; as a rule, active = well fitted inhibition curve with a large enough effect in the signal ratio, with a control signal flat (not every such curve was filed as active); inconclusive = small, poorly fitted or top-dose-only effect, or effect the other way, or a change in a side signal; inactive = flat fitted curve, though single readings scatter; the % refers to the signal ratio. Potencies of inconclusive entries are doubtful fits and often do not repeat.
Assay: qHTS Assay to Find Inhibitors of Chronic Active B-Cell Receptor Signaling;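 as to activity change, negative = inhibition: plate controls were basal doxycycline-induced cells for no effect and cells given 10 µM MG132 for full effect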
Settings: ABC-DLBCL IkBa-CBG/CBR reporter, luminescence ratio (green luciferase fused to IkBa over red control in TMD8 lymphoma cells), 4 h; activity change, negative = inhibition: at 46.1 µM (top of the series)
Summary of the method: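 Doxycycline induced both beetle luciferases in TMD8 lymphoma cells; IKK-driven degradation limits the IkappaBalpha-fused green signal, while red luminescence normalises for cell number and nonspecific effects. Compounds tested up to 46 uM, 4 hrs.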
With `CCCCNc1nc(-c2ccccc2)c(C(=O)OCC)cc1C#N` the “activity change, negative = inhibition” value was inactive: 17.3%. With `Cc1cc(C)nc(N=Nc2c(O)n(Cc3ccc(Cl)cc3)c3ccccc23)n1` the “activity change, negative = inhibition” value was inactive: -25.6%. In the case of `CCOCCCNC(=O)/C(C#N)=C/c1ccccc1F`, the activity change, negative = inhibition is reported as inconclusive: -0.237%. In the case of `Cn1c(=O)oc2cc(S(=O)(=O)NC3CCCc4ccccc43)ccc21` (stereo not drawn), the Potency is reported as inconclusive: 0.00461 µM [falling, full curve, poor fit]. In the case of `O=C(N1CCOCC1)N1CCN(c2nc(-c3ccc(F)cc3)cs2)CC1`, the “activity change, negative = inhibition” value is reported as inactive: 1.95%. With `CCc1nnc(NC(=O)c2ccc(S(=O)(=O)N(CC(C)C)CC(C)C)cc2)o1` the “activity change, negative = inhibition” value was inactive: -7.42%. For `O=C(Nc1cccc(NC(=O)c2ccccc2F)c1)c1ccccc1`, the activity change, negative = inhibition was inconclusive: -10.1%. With `CCN(CC(=O)Nc1ccc([N+](=O)[O-])cc1OC)c1ccccc1` the activity change, negative = inhibition was inconclusive: -7.52%. For `CCCOc1ccc(/C=C/C(=O)O)cc1OC`, the “activity change, negative = inhibition” value was inactive: -0.873%. With `CCN(CC)C(=O)CC(c1ccc(F)cc1)c1ccco1` (stereo not drawn) the activity change, negative = inhibition was inconclusive: 6.76%. With `CCN(Cc1nc2ccccc2c(=O)[nH]1)C(=O)COc1ccccc1-c1ccccc1` the activity change, negative = inhibition was inconclusive: -3.08%. With `O=C(NCCc1ccccc1)c1cnc2sccn2c1=O` the Potency was inconclusive: 29.1 µM [falling, single point]. In the case of `C=CCOC(=O)C(=O)/C=C/c1ccc2c(c1)Cc1ccccc1-2`, the Potency is reported as inconclusive: 14.1 µM [falling, partial curve]. For `CN1CCN(CCCNC(=O)c2cc3c(=O)n(C)c4ccccc4c3s2)CC1`, the activity change, negative = inhibition was inconclusive: -7.03%. In the case of `O=C(O)c1ccc(NC(=S)NC(=O)c2ccc3ccccc3c2)cc1`, the Potency is reported as inconclusive: 1.58 µM [falling, full curve, poor fit]. For `O=S(=O)(NCC(c1ccc2c(c1)OCO2)N1CCOCC1)c1ccccc1` (stereo not drawn), the “activity change, negative = inhibition” value was inactive: 1.8%. In the case of `O=C(CCc1ccccc1)Nc1cc2c(cc1Cl)OCCO2`, the activity change, negative = inhibition is reported as inconclusive: 2.78%. For `Oc1ccc(Br)cc1/C=N/n1c(-c2ccccc2)n[nH]c1=S`, the “activity change, negative = inhibition” value was inactive: 4.48%. With `S=C(NCCN1CCOCC1)Nc1ccc(-c2nc3ccccc3[nH]2)cc1` the activity change, negative = inhibition was inconclusive: 5.02%. With `COc1ccccc1C(=O)COC(=O)c1cccs1` the activity change, negative = inhibition was inconclusive: -1.01%. For `CS(=O)(=O)c1ccc(-c2sc3ccccc3c2C(=O)N2CCN(c3ccc(F)cc3)CC2)cc1`, the activity change, negative = inhibition was inconclusive: 4.15%. In the case of `CN(C)C(=O)Oc1ccc[n+](C)c1`, the “activity change, negative = inhibition” value is reported as inactive: 2.6%. For `COc1ccc(OC)c(Nc2cc(-c3ccccc3)nc(N)n2)c1`, the activity change, negative = inhibition was inconclusive: -0.161%. For `Cc1cccc(NC(=O)CSc2cc(C)c(C#N)c3nc4ccccc4n23)c1`, the “activity change, negative = inhibition” value was inactive: -9.07%. In the case of `c1ccc(CSc2nnc(-c3sccc3-n3cccc3)o2)cc1`, the Potency is reported as inconclusive: 10 µM [rising, partial curve, poor fit]. For `O=C(NCCCN1CCCC1=O)c1cccc(NS(=O)(=O)c2ccccc2)c1`, the activity change, negative = inhibition was inconclusive: 0.0415%. With `Cc1ccc(CC2S/C(=N/N=C/c3ccco3)NC2=O)cc1` (stereo not drawn) the activity change, negative = inhibition was inconclusive: 9.48%. With `O=C(Cc1ccccc1)Nc1ccc(NC(=O)c2ccco2)cc1Cl` the Potency was inconclusive: 12.6 µM [falling, partial curve]. In the case of `CC1CCC2C(=O)N(c3cccc(OS(=O)(=O)c4ccccc4)c3)C(=O)C2C1` (stereo not drawn), the activity change, negative = inhibition is reported as inconclusive: 2.09%. For `CCN(CC)S(=O)(=O)c1ccc(C(=O)Nc2ccc(Cc3ccncc3)cc2)cc1`, the Potency was inconclusive: 10 µM [falling, partial curve, poor fit]. For `O=C(c1ccccc1)N1CCN2C(=O)c3ccccc3C12c1ccc(Cl)cc1` (stereo not drawn), the activity change, negative = inhibition was inconclusive: 31.5%. For `CCOC(=O)N1CCN(Cc2cccs2)CC1`, the activity change, negative = inhibition was inconclusive: 2.88%. In the case of `CN(Cc1cn(C)nc1-c1ccc(Oc2ccccc2)cc1)Cc1cnc2ccccn12`, the “activity change, negative = inhibition” value is reported as inactive: -14.7%. For `COc1ccc2nc(SCC(=O)Nc3ccc4c(c3)OCCO4)[nH]c2c1`, the Potency was inconclusive: 17.8 µM [falling, single point]. In the case of `O=C(CN1CCN(Cc2ccccc2)CC1)N1CCCc2ccccc21`, the “activity change, negative = inhibition” value is reported as inactive: -0.519%. For `O=C1NCCCc2c1oc1ccc(O)cc21`, the activity change, negative = inhibition was inconclusive: 24.4%. In the case of `CC(=O)c1ccc(OCc2ncc(C(F)(F)F)cc2Cl)cc1`, the activity change, negative = inhibition is reported as inconclusive: 18.3%. In the case of `CC(C)CNC(=O)COCc1cc(-c2ccc3c(c2)OCO3)on1`, the activity change, negative = inhibition is reported as inconclusive: -13.1%. With `COCCNc1nc2c(-c3cccc(C(F)(F)F)c3)nnn2c2ccccc12` the activity change, negative = inhibition was inconclusive: 3.33%. With `Cc1ccc2nc(SCC(=O)Nc3cccc(S(=O)(=O)NC4=NCCCCC4)c3)[nH]c2c1` the activity change, negative = inhibition was inconclusive: -5.43%. With `CN1N=C2c3ccccc3CCCC2C1c1ccc(F)cc1` (stereo not drawn) the “activity change, negative = inhibition” value was inactive: 8.07%. In the case of `CC(C)c1nc2sc3c(=S)nc[nH]c3c2c2c1CCC2`, the activity change, negative = inhibition is reported as inconclusive: 3.86%. For `COc1cccc(-c2nc(CC(=O)O)cs2)c1OC`, the Potency was inconclusive: 7.31 µM [rising, single point]. For `C=CCc1cccc(C=Nc2cccn3cc(-c4ccccc4)nc23)c1O`, the Potency was inconclusive: 35.5 µM [rising, single point]. With `Cc1ccc2cc3c(N)c(C(=O)N4CC(=O)Nc5ccccc54)sc3nc2c1` the activity change, negative = inhibition was inconclusive: -6.52%. With `CC(C)(C)OC(=O)CC12CCCCC1NC(=O)O2` (stereo not drawn) the “activity change, negative = inhibition” value was inactive: -8.12%. With `O=c1cc(N2CCc3ccccc32)[nH]c(=O)n1-c1ccc(Br)cc1` the Potency was inconclusive: 20.6 µM [falling, partial curve]. In the case of `CCN(CC)CCCN1CC(O)=C(c2nc3ccccc3s2)C1=N`, the Potency is reported as inconclusive: 8.2 µM [rising, partial curve, poor fit]. For `O=C(Nc1ccccc1)Nc1ccc2ccccc2n1`, the activity change, negative = inhibition was inconclusive: 7.83%. With `Cc1ccc(/C=C2\SC(=S)N(CCCC(=O)NC3CCCC3)C2=O)cc1` the Potency was inconclusive: 35.5 µM [rising, single point]. For `CCC(C)C(=O)N1CCc2cc(-c3csc(N)n3)ccc21` (stereo not drawn), the activity change, negative = inhibition was inconclusive: 5.98%. For `CCOC(=O)Nc1ccc2c(c1)N(C(=O)OCCN(C)C)c1ccccc1CC2`, the activity change, negative = inhibition was “inactive”. In the case of `CCOC(=O)c1ccc(NC(=S)N2CCCC(C)C2)cc1` (stereo not drawn), the “activity change, negative = inhibition” value is reported as inactive: -11.4%. In the case of `COc1cc(/C=C/c2ccc3c(Br)cc(Br)c(O)c3n2)ccc1O`, the Potency is reported as inconclusive: 7.08 µM [cytotoxic, partial curve]. For `Cc1ccc(NC(=S)Nc2cc(-c3ccccc3)[nH]n2)cc1Cl`, the activity change, negative = inhibition was inconclusive: -21.3%. For `COc1ccccc1NC(=O)COC(=O)c1ccc([N+](=O)[O-])s1`, the “activity change, negative = inhibition” value was inactive: -0.0028%. For `CCn1cc(C(=O)OCc2cccc(Br)c2)c(=O)c2ccc(C)nc21`, the activity change, negative = inhibition was inconclusive: 12.3%. In the case of `COc1cccc(NC(=O)C2CCCCC2)c1`, the Potency is reported as inconclusive: 18.4 µM [falling, single point]. In the case of `COc1ccc(OC)c(-c2cc(C(=O)Nc3c(C)nn(Cc4ccccc4Cl)c3C)no2)c1`, the activity change, negative = inhibition is reported as inconclusive: -0.6%. In the case of `COc1ccc(CCNC(=O)Cc2ccsc2)cc1`, the “activity change, negative = inhibition” value is reported as inactive: -7.55%. For `S=C(Nc1ccc2nsnc2c1)N1CCCCCC1`, the “activity change, negative = inhibition” value was inactive: 22.9%. For `COc1ccc(C(=O)C2CCCN(Cc3cccn3-c3ccc(Cl)cn3)C2)c(OC)c1` (stereo not drawn), the Potency was inconclusive: 20 µM [falling, single point]. In the case of `CC(C)=NNc1nc2c(c(=O)n(C)c(=O)n2C)n1C`, the activity change, negative = inhibition is reported as inconclusive: 17.5%. With `CC(=O)OCC1O[C@@H](O[C@@H]2C[C@H]3C(C)(C)[C@H](OC(C)=O)CC[C@]3(C)[C@H]3CC[C@]45C[C@]4(CC[C@H]5[C@@H](C)C[C@@H](O)[C@H](O)C(C)(C)O)[C@@]32C)[C@H](O)[C@@H](O)[C@@H]1O` (stereo partly drawn) the activity change, negative = inhibition was inconclusive: 10.2%. For `CCOC(=O)c1c(C)oc2c(F)c(F)c(F)c(F)c2c1=O`, the “activity change, negative = inhibition” value was inactive: -12.8%. For `Cc1cccc(-c2nsc(SCC(=O)Nc3nccs3)n2)c1`, the activity change, negative = inhibition was inconclusive: 1.22%. With `O=C(Nc1ccc(S(=O)(=O)Nc2ccc(F)cc2)cc1)c1ccc(CN2CCOCC2)cc1` the activity change, negative = inhibition was inconclusive: 4.26%. In the case of `CCC(=O)c1ccccc1OCCCn1cncn1`, the Potency is reported as inconclusive: 18.4 µM [falling, partial curve, poor fit]. With `CCC(=O)Nc1nnc(SCc2cccc(F)c2)s1` the activity change, negative = inhibition was inconclusive: 7.83%. For `CCOC(=O)c1ccc(S(=O)(=O)N2CCN(C(=O)c3nn(C)c(=O)c4ccccc34)CC2)cc1`, the “activity change, negative = inhibition” value was inactive: -6.99%. With `CCc1ccccc1OCC(=O)Nc1cccc(S(=O)(=O)NC2=NCCCCC2)c1` the “activity change, negative = inhibition” value was inactive: -17.4%. With `CCc1cccc2c(C(=O)CSc3nncn3-c3ccc(OC)cc3)c[nH]c12` the “activity change, negative = inhibition” value was inactive: -0.634%. For `CCOC(=O)C1CCCN(C(=O)c2cc3cc4ccc(OC)cc4nc3o2)C1` (stereo not drawn), the “activity change, negative = inhibition” value was inactive: -14.4%. For `CC(=O)OC(C(=O)NC1CCCCC1)c1cccc(F)c1` (stereo not drawn), the activity change, negative = inhibition was inconclusive: -0.535%. For `O=C(C1CCN(S(=O)(=O)c2ccc(-n3cnnn3)cc2)CC1)N1CCCCC1`, the “activity change, negative = inhibition” value was inactive: 4.24%. In the case of `CSCc1c(C(=O)OCC(=O)c2ccc[nH]2)oc2ccccc12`, the activity change, negative = inhibition is reported as inconclusive: -23%. For `Clc1cccc(/C=N\Nc2nccs2)c1`, the Potency was inconclusive: 0.651 µM [rising, full curve, poor fit]. In the case of `CN(CC(=O)O/N=C(\N)c1ccccn1)S(=O)(=O)c1cc(Cl)ccc1Cl`, the Potency is reported as inconclusive: 0.0891 µM [falling, full curve, poor fit]. With `CCOC(=O)C1=C(C)N=c2s/c(=C\c3ccncc3)c(=O)n2C1c1ccc2c(c1)OCO2` (stereo not drawn) the activity change, negative = inhibition was inconclusive: -6.66%. In the case of `O=C(CS(=O)CC(=O)N(CC(=O)NC1CCCC1)C1CCCCC1)Nc1ccc(F)cc1` (stereo not drawn), the Potency is reported as inconclusive: 20 µM [falling, partial curve]. With `CCCC(=O)Nc1c2c(nn1-c1cccc(C)c1C)CS(=O)(=O)C2` the activity change, negative = inhibition was inconclusive: -28.3%. In the case of `Cc1nn(-c2ccccc2)c(C)c1/C=C/C(=O)OCC(=O)NC1CCS(=O)(=O)C1` (stereo not drawn), the activity change, negative = inhibition is reported as inconclusive: 21.8%. With `O=C(Nc1cccc(S(=O)(=O)Nc2ccc(Cl)cc2)c1)c1cc2c(s1)CCCC2` the activity change, negative = inhibition was inconclusive: 1.71%.

— PubChem BioAssay AID493014 (National Center for Advancing Translational Sciences (NCATS), 2011)
Potency is read from the fitted curve at half-maximal effect.
